Measured values reported in PubChem BioAssay AID493014 (National Center for Advancing Translational Sciences (NCATS), 2011).
The list shows a part of the results. Shown are side measurements of this screen, not its main read-out; they come without a call. The list favours compounds with an active or inconclusive main result. Potencies come from curve fits of mixed quality, noted in brackets.

Assay: qHTS Assay to Find Inhibitors of Chronic Active B-Cell Receptor Signaling
Details: ABC-DLBCL IkBa-CBG/CBR reporter, luminescence ratio (green luciferase fused to IkBa over red control in TMD8 lymphoma cells), 4 h
How it was run: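 Compounds up to 46 uM were incubated four hours with TMD8 cells whose green CBG68 luciferase is fused to IkappaBalpha; red CBR luminescence normalised the signal, and concentration-effect curves were fitted to fusion, red and ratio data.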

[1] = measured here: CBR red luminescence, cell number
[2] = measured here: IkBa-CBG green luminescence

| SMILES | AC50 [1] | AC50 [2] |
| --- | --- | --- |
| Nc1c(-c2ccccn2)cnn1-c1nc(-c2ccc(F)cc2)cs1 | 3.16 µM [rising, full curve, poor fit] | – |
| N=c1n(CCN2CCCC2)c2ccccc2n1CC(O)c1ccc(Cl)c(Cl)c1 (stereo not drawn) | 22.4 µM [falling, single point] | – |
| Cc1ccc(S(=O)(=O)N(c2cccc(C)c2)C2CCS(=O)(=O)C2)cc1 (stereo not drawn) | 0.092 µM [falling, full curve, poor fit] | – |
| CCc1nnc(NC(=O)CSc2nnc(-c3ccc(S(=O)(=O)N(CC)CC)cc3)n2CC)s1 | 2.59 µM [falling, single point] | – |
| CC(C)NC(=O)Cn1c(=O)c2c(ncn2Cc2ccccc2)n(Cc2ccccc2)c1=O | 29.1 µM [falling, single point] | – |
| CCC1(c2ccc(Cl)cc2)NC(=S)N(c2ccc(C)cc2)N1 (stereo not drawn) | 23.1 µM [rising, partial curve, poor fit] | – |
| Cc1onc(C(=O)N2CCC(Cc3ccccc3)CC2)c1[N+](=O)[O-] | 7.08 µM [falling, full curve] | – |
| Cc1ccc(NC(=O)c2ccc(N3C(=O)C4CC=C(Cl)CC4C3=O)cc2)cc1 (stereo not drawn) | 0.116 µM [falling, full curve, poor fit] | – |
| O=C(c1ccc(Cl)cc1)N1CCC(O)(CSc2ccc(Cl)cc2)CC1 | 14.1 µM [falling, single point] | – |
| O=C(CC(NC(=O)c1ccccc1Cl)c1ccccc1)Nc1ccc2c(c1)OCO2 (stereo not drawn) | 2.24 µM [rising, partial curve, poor fit] | – |
| CCOC(=O)c1cc(C)nc(N2CCCCC2)c1C#N | 7.08 µM [rising, partial curve] | – |
| CN1CCN(CCCNCc2cn(CCC#N)c3ccccc23)CC1 | 5.62 µM [rising, single point] | – |
| O=C(CSCc1cc(=O)n2nc(C3CC3)sc2n1)Nc1ccc(F)cc1 | 8.91 µM [falling, partial curve, poor fit] | – |
| Cc1ccc2cc3cc(C(=O)NCCN4CCOCC4)oc3nc2c1 | 0.00461 µM [rising, full curve, poor fit] | – |
| COc1cccc(Cn2c(=O)ccc3ccccc32)c1 | 15.8 µM [falling, partial curve, poor fit] | – |
| O=S(=O)(Cc1ccccc1)N1CCN(Cc2ccccc2)CC1 | 18.4 µM [rising, single point] | – |
| CCCCCc1ccc(-c2ccc(OCC)cc2)nc1 | 12.6 µM [rising, single point] | – |
| O=C(Nc1nnc(S(=O)(=O)N2CCCC2)s1)c1ccccc1Cl | 35.5 µM [rising, single point] | – |
| COCCNC(=O)CSc1nc2scc(-c3ccccc3)c2c(=O)[nH]1 | 22.4 µM [rising, partial curve, poor fit] | – |
| COc1ccc(OCc2cc(C(=O)NC3CCc4ccccc43)no2)c(Cl)c1 (stereo not drawn) | 12.6 µM [falling, partial curve] | – |
| O=C(Nc1ccc(-c2nc3ccccc3s2)cc1)C1=COCCO1 | 0.146 µM [rising, full curve, poor fit] | – |

| SMILES | AC50 [1] | AC50 [2] |
| --- | --- | --- |
| CS(=O)(=O)c1ccc2nc(NC(=O)c3ccco3)sc2c1 | 23.1 µM [falling, single point] | – |
| O=S(=O)(c1cc(Cl)ccc1Cl)N1CCCC1 | 2.06 µM [rising, partial curve, poor fit] | – |
| COc1ccc(N2CCN(c3nc4c(C)cccn4c(=O)c3/C=C(\C#N)C(N)=O)CC2)cc1 | 12.6 µM [falling, partial curve] | – |
| C=CCSc1nc(N)c(C(=O)Nc2ccccc2C)cc1C(N)=O | 23.1 µM [falling, single point] | – |
| Cc1ccc(S(=O)(=O)NCC(C)NS(C)(=O)=O)cc1 (stereo not drawn) | 8.2 µM [falling, partial curve, poor fit] | – |
| CCC(=O)NC(=Nc1nc2ccccc2s1)NC(=O)CC | 20.6 µM [falling, single point] | – |
| CCc1nc(NCC2CCCO2)c(C#N)c2c1COC(C)(C)C2 (stereo not drawn) | 6.51 µM [rising, single point] | – |
| COc1ccc(OCC(O)CN2C(=O)c3ccccc3S2(=O)=O)cc1 (stereo not drawn) | 20 µM [rising, partial curve, poor fit] | – |
| Cc1ccc2nsnc2c1NC(=O)c1ccc([N+](=O)[O-])o1 | 35.5 µM [falling, single point] | – |
| O=C(Nc1ccc(Oc2cccnc2)cc1)C1CCCCN1Cc1ccc(CO)o1 (stereo not drawn) | 35.5 µM [rising, single point] | – |
| CCOc1ccccc1NC(=O)C1CC(=O)n2ncnc2N1 (stereo not drawn) | 0.82 µM [rising, full curve, poor fit] | – |
| COc1ccc(C2=NOC3(CC(=O)N(c4ccc(C)cc4)C3=O)C2)cc1 (stereo not drawn) | 29.1 µM [rising, single point] | – |
| Cn1nc(NC(=O)C(F)(F)F)c2ncc(-c3ccc(Cl)cc3)nc21 | 2.51 µM [rising, full curve, poor fit] | – |
| CCc1nc(Nc2cccc(O)c2)c2oc3ccccc3c2n1 | 2.24 µM [falling, partial curve] | – |
| Cc1ccc(C(=O)COC(=O)c2c(C)cc(=O)oc2C)cc1[N+](=O)[O-] | 9.2 µM [rising, partial curve, poor fit] | – |
| COc1ccc(CNc2nc(C)c([N+](=O)[O-])c(C)c2C#N)cc1 | 6.51 µM [rising, full curve, poor fit] | – |
| Cc1cccc(NC(=O)Cn2nnc3sc4c(c3c2=O)CC(C)(C)OC4)c1 | 0.112 µM [rising, full curve, poor fit] | – |
| O=C(c1ccc(F)cc1)N1CCN2C(=O)c3ccccc3C12c1ccccc1 (stereo not drawn) | 25.1 µM [falling, single point] | – |
| C=CCOc1c(Br)cc(CNc2ccc(NC(=O)C(C)C)cc2)cc1OCC | 25.9 µM [rising, partial curve] | 23.1 µM [falling, single point] |
| CCOc1ccccc1CN1CCC(n2nccc2NC(=O)C2CCCC2)CC1 | 11.2 µM [falling, partial curve] | – |
| Cc1nnc(NC(=O)CSc2nnc(CC(=O)Nc3ccccc3Cl)n2C)s1 | 20 µM [rising, single point] | – |

2 compounds drawn at random from the list so far, as already listed:

| SMILES | AC50 [1] | AC50 [2] |
| --- | --- | --- |
| Cc1onc(C(=O)N2CCC(Cc3ccccc3)CC2)c1[N+](=O)[O-] | 7.08 µM [falling, full curve] | – |
| CC(C)NC(=O)Cn1c(=O)c2c(ncn2Cc2ccccc2)n(Cc2ccccc2)c1=O | 29.1 µM [falling, single point] | – |

Additional entries follow:

| SMILES | AC50 [1] | AC50 [2] |
| --- | --- | --- |
| O=S(=O)(c1ccc(Cl)c(Cl)c1)c1snnc1-c1ccccc1 | 18.4 µM [falling, partial curve] | – |
| Cc1ccc(S(=O)(=O)Nc2c(C)cc(C)nc2Cl)cc1 | 5.62 µM [rising, single point] | – |
| O=C(CP(=O)(c1ccccc1)c1ccccc1)Nc1nc2ccccc2s1 | 35.5 µM [falling, single point] | – |
| CCCN(CCC)S(=O)(=O)c1ccc(C(=O)O)cc1 | – | 20.6 µM [rising, partial curve, poor fit] |
| Cc1cc(N(C)C)ccc1N=Nc1ccc2ncccc2c1 | 3.16 µM [rising, partial curve] | 12.6 µM [falling, single point] |
| Cc1ccc(C(=O)Nc2ccc3c(c2)OCO3)cc1S(=O)(=O)N1CCCCC1 | 8.2 µM [falling, partial curve, poor fit] | – |
| CCC(NC(=O)c1ccccc1NC(=O)c1ccccc1)C(=O)NNC(=O)c1cccnc1 (stereo not drawn) | 3.55 µM [rising, full curve] | – |
| COc1ccccc1-n1c(CNC(=O)c2ccc(S(=O)(=O)N3CCOCC3)cc2)n[nH]c1=S | 0.58 µM [falling, full curve] | – |
| CCOc1ccc(/C=N/n2cc(-c3ccccc3)[nH]c2=S)cc1 | – | 4.47 µM [falling, single point] |
| O=C(COc1ccc(F)cc1)Nc1nccs1 | 14.6 µM [falling, partial curve] | – |
| COc1ccc2cc(CN(C(=O)Nc3ccccc3)C3CCCC3)c(=O)[nH]c2c1 | 7.08 µM [falling, full curve] | 5.62 µM [rising, partial curve, poor fit] |
| COC(=O)c1scc(C)c1NC(=O)c1ccccc1F | 3.55 µM [rising, full curve, poor fit] | – |
| N#Cc1c(-c2ccccc2)nc(SCC(=O)N(c2ccccc2)c2ccccc2)[nH]c1=O | 29.1 µM [falling, single point] | 14.6 µM [rising, partial curve, poor fit] |
| CCOC(=O)c1nc(Nc2ccccc2C)c2ccccc2n1 | 11.2 µM [rising, partial curve, poor fit] | – |
| Nc1nc(-c2ccccc2)c(-c2ccccc2)n1N | 11.2 µM [falling, partial curve, poor fit] | – |
| O=C(Nc1ccc(N2CCCC2)cc1)c1cccc(Cl)c1Cl | 17.8 µM [falling, partial curve, poor fit] | – |
| CCOc1ccccc1NC(=O)CSc1nc(=O)n(Cc2ccccn2)c2c1CCC2 | 2.06 µM [falling, full curve] | – |
| Clc1ccc(C2=C3CCCCn4c(-c5ccccc5)c[n+](c43)C2)cc1 | 14.1 µM [falling, partial curve] | – |
| COc1cccc2c3c(c(C)nc12)CCN3c1ccccc1 | 35.5 µM [falling, single point] | – |
| Cc1ccc(NC(=O)CN(C)CC(=O)Nc2cccc(F)c2)cc1S(=O)(=O)N1CCCCCC1 | 11.2 µM [falling, partial curve, poor fit] | – |
| Cc1c(CCC(=O)N[C@@H](CC(C)C)C(=O)O)c(=O)oc2cc3oc4c(c3cc12)CCCC4 | 0.1 µM [rising, full curve, poor fit] | 7.08 µM [falling, full curve, poor fit] |
